Results reported in patent US6365711.
Results are given in words; binding and its absence hold for the method and conditions named. For part of these data: Binding can be weak; no strength is given. Where a sequence is shown, tags or fusion partners need not be part of it. One block for each binder: values may come before it.

Assays:
[1] = biological target: HA-tagged Smad4; assay: FAST-1 deletion mutant co-expressed with tagged Smad in Xenopus embryos
[2] = biological target: HA-tagged Smad4; assay: Myc-tagged FAST-1 deletion mutant co-expressed with tagged Smad and activin in Xenopus embryos (summarised in FIG. 6A)

binding [1]: no binding
B1: Myc-tagged Δ473-534 (protein, not shown: small tags and cut ends)
chain: YREGGTWSPDRGSMYGLSPGTHEGSCTHTHEGPKDSMAGDQTRSRKSKKKNYHRYNKPPYSYLAMIALVIQNSPEKRLKLSQILKEVSTLFPFFNGDYMGWKDSIRHNLSSSDCFKKILKDPGKPQAKGNFWTVDVSRIPLDAMKLQNTALTRGGSDYFVQDLAPYILHNYKYEHNAGAYGHQMPPSHARSLSLAEDSQQTNTGGKLNTSFMIDSLLHDLQEVDLPDASRNLENQRISPAVAMNNMWSSAPLLYTHSKPTRNARSPGLSTIHSTYSSSSSSISTISPVGFQKEQEKSGRQTQRVGHPIKRSREDDDCSTTSSDPDTGNYSPIEPPKKMPLLSLDLPTSYTKSVAPNVVAPPSVLPFFHFPRFTYYNYGPSPYMTPPYWGFPHPTNSGGDSPRGPQSPLDLDN

binding [2]: binds
B2: Myc-tagged Δ506-534 (protein, not shown: small tags and cut ends)
chain: YREGGTWSPDRGSMYGLSPGTHEGSCTHTHEGPKDSMAGDQTRSRKSKKKNYHRYNKPPYSYLAMIALVIQNSPEKRLKLSQILKEVSTLFPFFNGDYMGWKDSIRHNLSSSDCFKKILKDPGKPQAKGNFWTVDVSRIPLDAMKLQNTALTRGGSDYFVQDLAPYILHNYKYEHNAGAYGHQMPPSHARSLSLAEDSQQTNTGGKLNTSFMIDSLLHDLQEVDLPDASRNLENQRISPAVAMNNMWSSAPLLYTHSKPTRNARSPGLSTIHSTYSSSSSSISTISPVGFQKEQEKSGRQTQRVGHPIKRSREDDDCSTTSSDPDTGNYSPIEPPKKMPLLSLDLPTSYTKSVAPNVVAPPSVLPFFHFPRFTYYNYGPSPYMTPPYWGFPHPTNSGGDSPRGPQSPLDLDNMLRAMPPNKSVFDVLTSHPGDLVHPSFLSQCLG

binding [2]: binds
B3: Myc-tagged Δ1-366 FAST-1 (protein, not shown: small tags and cut ends)
chain: HPIKRSREDDDCSTTSSDPDTGNYSPIEPPKKMPLLSLDLPTSYTKSVAPNVVAPPSVLPFFHFPRFTYYNYGPSPYMTPPYWGFPHPTNSGGDSPRGPQSPLDLDNMLRAMPPNKSVFDVLTSHPGDLVHPSFLSQCLGSSGSPYPSRQGLMYRRRPPGLTWSGHSMK
